According to publication PMC6546392:
These are yes or no findings as the source states them, for the method shown. Some results given as binding are weak or reduced against the parent protein; the word gives no strength. Where a sequence is shown, tags or fusion partners need not be part of it.

Chains of the proteins cited; added tags and fusions are not shown.
UniProt Q24368: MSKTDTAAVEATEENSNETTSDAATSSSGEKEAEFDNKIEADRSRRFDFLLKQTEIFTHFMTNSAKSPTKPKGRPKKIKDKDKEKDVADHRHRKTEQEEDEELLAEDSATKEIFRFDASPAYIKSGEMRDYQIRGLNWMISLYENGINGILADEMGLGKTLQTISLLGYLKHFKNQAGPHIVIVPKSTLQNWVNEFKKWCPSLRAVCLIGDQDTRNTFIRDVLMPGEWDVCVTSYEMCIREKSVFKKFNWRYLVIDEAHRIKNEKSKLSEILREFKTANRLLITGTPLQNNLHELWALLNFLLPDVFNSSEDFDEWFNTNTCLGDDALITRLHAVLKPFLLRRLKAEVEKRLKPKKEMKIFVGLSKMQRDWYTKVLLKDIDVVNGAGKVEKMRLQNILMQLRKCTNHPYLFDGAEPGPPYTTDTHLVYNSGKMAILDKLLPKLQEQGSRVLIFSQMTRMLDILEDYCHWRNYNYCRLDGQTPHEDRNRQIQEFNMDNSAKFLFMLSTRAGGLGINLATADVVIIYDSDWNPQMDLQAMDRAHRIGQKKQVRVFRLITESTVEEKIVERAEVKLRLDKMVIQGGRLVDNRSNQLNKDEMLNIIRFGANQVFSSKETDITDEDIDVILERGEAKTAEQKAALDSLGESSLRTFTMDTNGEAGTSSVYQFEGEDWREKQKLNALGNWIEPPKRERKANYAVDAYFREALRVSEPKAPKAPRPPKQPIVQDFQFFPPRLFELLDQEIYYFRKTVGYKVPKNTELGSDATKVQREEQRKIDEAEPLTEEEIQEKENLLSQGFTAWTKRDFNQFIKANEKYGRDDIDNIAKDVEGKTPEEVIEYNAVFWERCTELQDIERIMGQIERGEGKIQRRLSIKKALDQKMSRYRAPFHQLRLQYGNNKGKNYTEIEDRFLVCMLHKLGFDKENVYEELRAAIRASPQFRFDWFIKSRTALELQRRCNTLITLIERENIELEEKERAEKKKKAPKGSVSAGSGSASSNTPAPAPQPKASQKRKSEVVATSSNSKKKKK

Target: T1, Acf1 regulatory subunit of the Drosophila ACF complex, FLAG-tagged (Drosophila melanogaster) (UniProt Q9V9T4)
T1 sequence: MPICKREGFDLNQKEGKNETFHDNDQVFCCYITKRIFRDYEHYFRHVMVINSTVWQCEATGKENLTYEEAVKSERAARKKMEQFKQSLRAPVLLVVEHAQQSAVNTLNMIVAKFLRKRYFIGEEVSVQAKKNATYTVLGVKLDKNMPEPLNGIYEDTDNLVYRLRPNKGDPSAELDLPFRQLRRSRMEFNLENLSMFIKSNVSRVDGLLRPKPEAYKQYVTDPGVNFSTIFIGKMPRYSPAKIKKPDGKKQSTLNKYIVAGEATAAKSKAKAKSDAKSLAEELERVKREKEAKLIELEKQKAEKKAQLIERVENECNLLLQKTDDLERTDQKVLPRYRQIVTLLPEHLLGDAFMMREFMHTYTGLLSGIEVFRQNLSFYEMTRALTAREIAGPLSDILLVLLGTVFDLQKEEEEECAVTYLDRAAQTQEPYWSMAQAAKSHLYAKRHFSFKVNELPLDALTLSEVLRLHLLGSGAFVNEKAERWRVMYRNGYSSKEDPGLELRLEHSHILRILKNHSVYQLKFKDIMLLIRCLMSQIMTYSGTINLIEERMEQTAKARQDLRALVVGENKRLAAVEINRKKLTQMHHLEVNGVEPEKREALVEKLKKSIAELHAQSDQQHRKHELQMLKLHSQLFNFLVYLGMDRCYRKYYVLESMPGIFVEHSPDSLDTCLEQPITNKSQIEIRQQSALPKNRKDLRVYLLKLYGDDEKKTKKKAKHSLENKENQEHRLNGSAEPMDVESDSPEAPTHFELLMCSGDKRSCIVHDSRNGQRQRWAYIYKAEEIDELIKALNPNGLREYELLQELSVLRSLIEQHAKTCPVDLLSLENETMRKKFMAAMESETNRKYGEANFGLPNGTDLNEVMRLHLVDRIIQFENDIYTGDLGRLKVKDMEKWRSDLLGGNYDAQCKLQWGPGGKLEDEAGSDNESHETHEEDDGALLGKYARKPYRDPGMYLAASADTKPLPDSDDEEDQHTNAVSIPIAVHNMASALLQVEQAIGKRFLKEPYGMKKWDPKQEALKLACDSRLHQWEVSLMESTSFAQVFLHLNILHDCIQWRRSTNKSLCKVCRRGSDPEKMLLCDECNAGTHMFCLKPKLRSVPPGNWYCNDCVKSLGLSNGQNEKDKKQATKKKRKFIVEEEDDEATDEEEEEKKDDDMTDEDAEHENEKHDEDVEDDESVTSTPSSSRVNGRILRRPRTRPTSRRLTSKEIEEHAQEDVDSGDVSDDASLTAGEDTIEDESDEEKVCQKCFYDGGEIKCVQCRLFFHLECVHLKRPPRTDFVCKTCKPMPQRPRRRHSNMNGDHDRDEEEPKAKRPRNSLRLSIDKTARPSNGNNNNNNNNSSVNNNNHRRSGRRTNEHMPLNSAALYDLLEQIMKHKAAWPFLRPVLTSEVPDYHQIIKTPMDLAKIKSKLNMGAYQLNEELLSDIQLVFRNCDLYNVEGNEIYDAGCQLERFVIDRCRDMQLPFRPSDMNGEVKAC
Experiment: co-IP; FLAG pulldown of the bought ACF complex: 15 µl of 100 nM ACF on 10 µl anti-FLAG M2 beads in a spin column, 30 min shaking at 4°C, slide buffer without BSA (20 mM HEPES-KOH pH 7.5, 100 mM KCl, 5 mM MgCl2, 1 mM DTT, 5% sucrose). Iswi was followed only by the nucleosome sliding activity left in the flow-through (native gel), not by a blot. Controls: column without beads, and beads pre-blocked with 3xFLAG peptide; both purified

Iswi ATPase subunit of the Drosophila ACF complex (from UniProt Q24368 1-1027) (enzyme)
binding: binds
